PubChem BioAssay AID1508597 – Cure First | 2020

Assay: 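Survival screen with siRNA in ovarian cancer cells derived from patients, with or without rucaparib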 (primary screen)
System: human ovarian carcinoma lines grown from tumours: OCI-P5x (papillary serous) and OCI-C5x (clear cell)
Knock-down reagent: siRNA pool against human genes, 1.25 pmol siRNA per well
Timing: 72 h or 96 h, depending on the cell culture
Challenge: rucaparib 20 µM (about IC30) or vehicle, present until read-out
Rucaparib or vehicle: Rucaparib
Cell line: OCI-P5x (serous)
Detection: 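Luminescent ATP-based viability assay read 72 or 96 h after transfection, depending on culture, given as normalised percent viability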
Reading the numbers: viability, normalised: higher = more viable cells remaining
Rule for the call: 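a well counts as a hit if its normalised viability is under 80 percent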
Calls: active = viability under 80%; inactive = viability 80% or more
This is a random part of the about 2,100 reagents, under one of the conditions tested. 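Calls flag viability under 80% in either arm, not effects specific to rucaparib; the reference for percent is not stated.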 A number with no mark means an inactive call. A reagent listed more than once was tested more than once; the source does not tell the runs apart. Not given: the 100% reference.

{"gene knocked down": "BRD3 (bromodomain containing 3)", "technical replicate": "1", "viability, normalised (%)": "48.8 (active)"}
{"gene knocked down": "BRD3 (bromodomain containing 3)", "technical replicate": "1", "viability, normalised (%)": "35.9 (active)"}
{"gene knocked down": "BRD3 (bromodomain containing 3)", "technical replicate": "2", "viability, normalised (%)": "66.4 (active)"}
{"gene knocked down": "BRD3 (bromodomain containing 3)", "technical replicate": "2", "viability, normalised (%)": "54.9 (active)"}
{"gene knocked down": "BRD3 (bromodomain containing 3)", "technical replicate": "3", "viability, normalised (%)": 87.2}
{"gene knocked down": "BRD3 (bromodomain containing 3)", "technical replicate": "3", "viability, normalised (%)": "38.3 (active)"}
{"gene knocked down": "MAP3K11 (mitogen-activated protein kinase kinase kinase 11)", "technical replicate": "1", "viability, normalised (%)": 103}
{"gene knocked down": "MAP3K11 (mitogen-activated protein kinase kinase kinase 11)", "technical replicate": "2", "viability, normalised (%)": 106}
{"gene knocked down": "MAP3K11 (mitogen-activated protein kinase kinase kinase 11)", "technical replicate": "3", "viability, normalised (%)": 89.7}
{"gene knocked down": "UBR7 (ubiquitin protein ligase E3 component n-recognin 7)", "technical replicate": "1", "viability, normalised (%)": "52 (active)"}
{"gene knocked down": "UBR7 (ubiquitin protein ligase E3 component n-recognin 7)", "technical replicate": "2", "viability, normalised (%)": "54.9 (active)"}
{"gene knocked down": "UBR7 (ubiquitin protein ligase E3 component n-recognin 7)", "technical replicate": "3", "viability, normalised (%)": "63.6 (active)"}
{"gene knocked down": "DDX20 (DEAD-box helicase 20)", "technical replicate": "1", "viability, normalised (%)": "67.9 (active)"}
{"gene knocked down": "DDX20 (DEAD-box helicase 20)", "technical replicate": "2", "viability, normalised (%)": 90.1}
{"gene knocked down": "DDX20 (DEAD-box helicase 20)", "technical replicate": "3", "viability, normalised (%)": "67.6 (active)"}
{"gene knocked down": "VRK1 (VRK serine/threonine kinase 1)", "technical replicate": "1", "viability, normalised (%)": 113}
{"gene knocked down": "VRK1 (VRK serine/threonine kinase 1)", "technical replicate": "2", "viability, normalised (%)": 104}
{"gene knocked down": "VRK1 (VRK serine/threonine kinase 1)", "technical replicate": "3", "viability, normalised (%)": 80.8}
{"gene knocked down": "PDE2A (phosphodiesterase 2A)", "technical replicate": "1", "viability, normalised (%)": "51.1 (active)"}
{"gene knocked down": "PDE2A (phosphodiesterase 2A)", "technical replicate": "2", "viability, normalised (%)": "56.4 (active)"}
{"gene knocked down": "PDE2A (phosphodiesterase 2A)", "technical replicate": "3", "viability, normalised (%)": "52.2 (active)"}

2 successive entries already listed, for reference:
{"gene knocked down": "VRK1 (VRK serine/threonine kinase 1)", "technical replicate": "1", "viability, normalised (%)": 113}
{"gene knocked down": "VRK1 (VRK serine/threonine kinase 1)", "technical replicate": "2", "viability, normalised (%)": 104}
